Reference: the supplement of paper PMC3334620
Whole data set: some 33,000 sequences, median “E-score (-0.5 to 0.5)” near -0.015, cut for the highest 2% near 0.3. The list shows a part of the results.

Molecular target: T1, Abf1 (UniProt P14164)
T1 sequence: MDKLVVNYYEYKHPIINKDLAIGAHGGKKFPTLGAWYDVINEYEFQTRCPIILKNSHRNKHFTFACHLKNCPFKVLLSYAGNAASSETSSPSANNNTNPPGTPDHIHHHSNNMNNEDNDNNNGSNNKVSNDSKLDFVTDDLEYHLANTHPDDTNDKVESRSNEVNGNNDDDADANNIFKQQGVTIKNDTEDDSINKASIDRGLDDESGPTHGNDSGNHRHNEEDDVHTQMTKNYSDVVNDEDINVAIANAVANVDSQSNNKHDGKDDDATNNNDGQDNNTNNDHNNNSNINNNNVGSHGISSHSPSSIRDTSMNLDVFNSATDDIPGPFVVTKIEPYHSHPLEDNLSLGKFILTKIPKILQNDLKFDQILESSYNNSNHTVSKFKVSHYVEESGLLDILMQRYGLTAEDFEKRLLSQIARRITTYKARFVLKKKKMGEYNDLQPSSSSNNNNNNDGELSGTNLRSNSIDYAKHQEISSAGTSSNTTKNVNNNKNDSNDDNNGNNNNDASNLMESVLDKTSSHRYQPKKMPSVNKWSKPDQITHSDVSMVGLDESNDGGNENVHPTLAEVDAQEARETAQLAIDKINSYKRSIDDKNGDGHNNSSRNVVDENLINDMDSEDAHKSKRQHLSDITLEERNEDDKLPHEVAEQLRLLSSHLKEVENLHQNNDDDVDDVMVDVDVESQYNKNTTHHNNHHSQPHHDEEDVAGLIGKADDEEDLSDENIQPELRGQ
Test: PBM E-score (8-mer binding enrichment) (E-score (-0.5 to 0.5)); higher = stronger / more preferred TF binding
Conditions: protein concentration: 200 nM; construct: GST-full length
How it was run: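 Detection of bound protein used fluorescent anti-GST, with scans normalised by masliner. The proteins were GST-tagged yeast transcription factors applied at about 100-200 nM to universal all-10-mer Agilent arrays made double-stranded by primer extension. Each ungapped eight-base word, pooled with its reverse complement, was scored with an E-score from the Universal PBM Analysis Suite.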

| Sequence | PBM E-score |
| --- | --- |
| CAACTTGG | -0.0126 |
| CGACATTC | 0.0424 |
| AGAGTACT | -0.22 |
| ATATCCTC | 0.133 |
| AGGGTGAC | 0.166 |
| GACCTTAA | 0.00054 |
| CTATATCC | -0.0211 |
| CTCGTGCC | -0.0761 |
| AGGCAATG | -0.0496 |
| CCCTGGCG | -0.243 |
| CGGCAAGC | 0.0221 |
| ATTCATAA | 0.111 |
| CCGCACAG | -0.0965 |
| ACAAGCCA | -0.0334 |
| CAGTATCG | 0.14 |
| ATAAACTC | -0.0308 |
| ACCTATTA | 0.0712 |
| CCATGACA | 0.0894 |
| CTGCTGGA | -0.0122 |
| CTCCATTA | -0.244 |
| ACCACAAA | 0.0999 |
| CCTTAGAC | -0.0549 |

| Sequence | PBM E-score |
| --- | --- |
| AATATAAT | 0.119 |
| CCGACGAC | 0.261 |
| AAGGTGAT | 0.264 |
| CGTGCCAG | 0.148 |
| AGGCAGCA | -0.0225 |
| GTTGCCGA | -0.0651 |
| AAGCGTCG | 0.0106 |
| CCCTCCAG | -0.378 |
| AACCTCGC | -0.0854 |
| GACCGAGA | -0.119 |
| ATCGTCCC | 0.143 |
| AGCCTACT | -0.182 |
| CCTACGCA | -0.0242 |
| GCCATCAA | -0.165 |
| CGTCTTCC | 0.027 |
| TAACTTGA | 0.0918 |
| ACTTCTGG | -0.069 |
| ATCTGAAC | -0.027 |
| CAGCATTC | -0.0995 |
| AGTCGCTC | -0.106 |
| CCCTAAGC | -0.148 |
| CGTGCGCA | 0.141 |

Some values from the entries so far.
CCCTCCAG | PBM E-score: -0.378
CGTCTTCC | PBM E-score: 0.027
AGCCTACT | PBM E-score: -0.182
AGTCGCTC | PBM E-score: -0.106

Later entries:

| Sequence | PBM E-score |
| --- | --- |
| CAGGGTGA | 0.0383 |
| CAAGTCTG | -0.173 |
| CCAACATA | 0.138 |
| CATGACAC | 0.218 |
| CGATGCTA | 0.0972 |
| CGTCTACA | 0.0401 |
| AACGGATG | -0.181 |
| TGGCCGAA | -0.13 |
| GTTCGGTA | -0.0503 |
| CTCTCATA | 0.0213 |
| GCCTGCAC | -0.184 |
| ACGCGGGA | -0.167 |
| ACCAAATA | 0.167 |
| CGCCACGA | 0.16 |
| ACTTTGTG | 0.13 |
| GTTACATA | 0.0313 |
| CCGTAGCG | 0.132 |
| ATCATCAC | 0.393 |
| CTGGGGAA | -0.228 |
| TAATTGTA | -0.0372 |
| AGAACCTC | -0.134 |
| CAGGTAGC | -0.0477 |

| Sequence | PBM E-score |
| --- | --- |
| CCTCATCC | -0.212 |
| ACACCGTA | 0.0493 |
| ACTTCGCA | 0.0373 |
| TCAAGTGA | 0.208 |
| CTACGGGC | -0.177 |
| AAGCATTA | 0.0928 |
| AATATTGA | 0.142 |
| CAATGCGC | 0.1 |
| TGGGAAAA | 0.0159 |
| TCTCAGAA | 0.102 |
| GACGTGCA | 0.358 |
| CCCTACCC | -0.183 |
| GCAAACGC | 0.00943 |
| AATATTCG | 0.142 |
| AGGCCTCG | -0.0392 |
| AGATGACT | -0.0855 |
| ACCGACAC | 0.0328 |
| ACCGGGCC | -0.0476 |
| AGGTATAC | 0.0716 |
| GCTTTGAC | 0.00967 |
